Test results: US11224565B2, “N-acyldipeptide derivatives and their uses” (NeoStrata Company, Inc., priority 2011, dated 2022)
Some results were stated once for a whole list of compounds, not compound by compound. At least one compound was matched to its structure with a doubt left. Peptide text beside a SMILES is read from it.

Assays:
[1] = test system: inflammation, dermatitis, or eczema lesions; test: Topical application to chronic inflammation, dermatitis, eczema or allergic skin lesions, clinical evaluation; format: in vivo, human; conditions: twice daily; for improvement as judged by clinical evaluation: chronic eczema right leg, 4 weeks, 0.5% (w/v) N-Ac-L-Tyr-L-Tyr-NH2 solution pH 6.7 on one lesion, 0.4% (w/v) N-Ac-L-Val-L-Ala-NH2 in WEP442 pH 5.8 on second; for improvement as judged by clinical evaluations: chronic eczema of legs, four weeks, 2% (w/v) N-Ac-L-Val-L-Ala-NH2 cream on one leg, 0.5% (w/w) N-Ac-L-Tyr-L-Tyr-NHNHAc in WEP442 pH 5.5 on the other
Description: In another embodiment, the volunteer subject topically applied the test compositions containing N-acyldipeptide derivatives of the present invention on involved skin or lesions once or twice daily for several weeks or until the involved lesions completely cleared and clinically changed to normal skin. As a control study, the subject also topically applied a vehicle control composition on the involved skin or lesions twice daily for the same period.

[2] = test system: insect bites; test: Topical application to insect bite lesions (itch, erythema, inflammation); format: in vivo, human; conditions: mosquito bites, twice daily, end of three days; 0.5% (w/v) N-Ac-L-Val-L-Ala-NH2 in WEP442 pH 5.9, 0.5% (w/v) N-Ac-L-Tyr-L-Tyr-NH2 in WEP442 pH 6.7; vehicle no discernible change
Procedure: A subject, having intensive itch and erythema on their left arm from insect bites, topically applied 10% (w/w) N—Ac-L-Leu-Gly-NH2 cream as formulated in Example 3 on the involved lesions.
A subject had multiple lesions of insect bites (mosquitoes) over the face and arms with itch and inflammatory lesions of more than 1 cm in size. For testing purposes, the subject divided the lesions into three groups: the first group was treated with vehicle control, the second and third groups were treated with active compositions. The subject topically applied twice daily 0.5% (w/v) N—Ac-L-Val-L-Ala-NH2 solution in WEP442, pH 5.9 on the lesions of the second group, and 0.5% (w/v) N—Ac-L-Tyr-L-Tyr-NH2 solution in WEP442, pH 6.7 (Example 5) on the lesions of the third group. […] The lesions in the second and third groups also started to improve over the next few days. At the end of three days, while there was no discernible change in the lesions treated with vehicle control in the first group, the lesions in the second and third groups had 90-100% improvement with nearly complete disappearance of inflammatory lesions.
A subject had multiple lesions of chigger bites (grass mites) over the legs with intensive itch and red inflammatory lesions. The subject topically applied twice daily 0.5% (w/v) N—Ac-L-Val-L-Ala-NH2 solution in WEP442, pH 6.7 (Example 5) on the lesions. […]

| Structure (SMILES) | improvement as judged by clinical evaluation [1] | improvement of lesions [2] | improvement as judged by clinical evaluations [1] |
| --- | --- | --- | --- |
| CC(=O)N[C@@H](Cc1ccc(O)cc1)C(=O)N[C@@H](Cc1ccc(O)cc1)C(N)=O [N-Ac-L-Tyr-L-Tyr-NH2] (Ac-Tyr-Tyr-NH2) | 95-100% | 90-100% | – |
| CC(=O)NNC(=O)[C@H](Cc1ccc(O)cc1)NC(=O)[C@H](Cc1ccc(O)cc1)NC(C)=O [N-Ac-L-Tyr-L-Tyr-NHNHAc] | – | – | 95-100% |
| CC(=O)N[C@H](C(=O)N[C@@H](C)C(N)=O)C(C)C [N-Ac-L-Val-L-Ala-NH2] (Ac-Val-Ala-NH2) | 95-100% | 90-100% | 95-100% |
